Broadly, the pIC50 is the negative decadic logarithm of the IC50, by convention in mol/L.

One test has as its system HepG2 liver cells. Nature of the test: HepG2 toxicity assay. The format is cell-based. The note with it: Homo sapiens, HepG2, read-out: HepG2 IC50.
In the next test the test system is P. falciparum. The note with it: read-out: P. falciparum IC50; cited from earlier work.

pIC50: −log10 of the molar value.

For the molecule `O=C(CCCCCCC(=O)Nc1ccccc1)NO` [SAHA, suberoylanilide hydroxamic acid], the pIC50 with HepG2 liver cells was 5.83; in the test with P. falciparum it was 6.51 to 6.96.
